PubChem BioAssay AID504808 | Drosophila RNAi Screening Center | 2011

- Aim: 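Fly genes required to hold E2F transcription in check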 (primary screen)
- Cell system: Drosophila S2 cells
- Knock-down reagent: long dsRNA against Drosophila genes
- Measured: 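Dual luciferase plate measurements; E2F-specific signal taken as firefly over Renilla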
- Direction: E2F firefly: higher = more E2F reporter activity; Renilla normaliser: higher = more normaliser reporter signal
- Active means: 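Called active if the normalised E2F reporter went up by over 50%; the cutoff is arbitrary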
In all, the deposit lists about 21,000 reagents; below is a random part of those that have a named target and a result. In the full data, 18 (0.084%) were called active. 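Raw counts without plate normalisation, one of two replicates; the ratio scores behind the calls were not deposited.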 A number with no mark means an inactive call. Names joined by + are all predicted targets of the reagent. The record does not give: the amount of reagent, the time to read-out.

The first 10 records, ahead of the listing:
| Gene | DRSC id | E2F firefly, rep 1 | Renilla normaliser, rep 1 |
| --- | --- | --- | --- |
| CG1840 | DRSC19806 | 7959 | 700 |
| CG34310 | DRSC00943 | 1.45e5 | 5899 |
| Lcp65Ag3 | DRSC10345 | 1.01e5 | 3934 |
| CG3630 | DRSC18499 | 1631 | 880 |
| CG7786 | DRSC07045 | 1.28e5 | 4301 |
| polybromo | DRSC14307 | 66940 | 3445 |
| CG10165 | DRSC02017 | 1.01e5 | 4032 |
| Rrp47 | DRSC20124 | 1.50e5 | 8035 |
| Letm1 | DRSC04476 | 75066 | 3424 |
| qkr54B | DRSC07670 | 1.33e5 | 4990 |

The listing, from the first entry:
| Gene | DRSC id | E2F firefly, rep 1 | Renilla normaliser, rep 1 |
| --- | --- | --- | --- |
| CG1840 | DRSC19806 | 7959 | 700 |
| CG34310 | DRSC00943 | 1.45e5 | 5899 |
| Lcp65Ag3 | DRSC10345 | 1.01e5 | 3934 |
| CG3630 | DRSC18499 | 1631 | 880 |
| CG7786 | DRSC07045 | 1.28e5 | 4301 |
| polybromo | DRSC14307 | 66940 | 3445 |
| CG10165 | DRSC02017 | 1.01e5 | 4032 |
| Rrp47 | DRSC20124 | 1.50e5 | 8035 |
| Letm1 | DRSC04476 | 75066 | 3424 |
| qkr54B | DRSC07670 | 1.33e5 | 4990 |
| lmgA + lmgB | DRSC03566 | 1.47e5 | 5183 |
| Cog7 | DRSC16331 | 1.13e5 | 6647 |
| Cpr73D | DRSC11084 | 88904 | 3980 |
| CG32388 | DRSC08861 | 1.22e5 | 4348 |
| TTLL15 | DRSC15543 | 1.22e5 | 5770 |
| Epp | DRSC14607 | 71341 | 3718 |
| CG11191 | DRSC06056 | 2599 | 199 |
| Acp95EF | DRSC14102 | 1.05e5 | 6614 |
| AP-2sigma | DRSC15957 | 1.23e5 | 7609 |
| ocn | DRSC17020 | 1.23e5 | 6039 |
| CG10413 | DRSC02052 | 83706 | 3417 |
| YL-1 | DRSC02765 | 2.29e5 (active) | 147 |
| AGO2 | DRSC09999 | 1.26e5 | 9947 |
| AGO2 | DRSC10847 | 76753 | 5254 |
| Dys + snoRNA:Me18S-A1374 | DRSC16232 | 1.18e5 | 7250 |
| SCCRO3 | DRSC06359 | 95357 | 4265 |
| CG13786 | DRSC02289 | 1.49e5 | 5353 |
| CG2065 | DRSC06813 | 1.43e5 | 4244 |
| CG12773 | DRSC18580 | 1875 | 916 |
| CG9467 | DRSC16498 | 70592 | 3932 |
| CG5056 | DRSC02808 | 1.52e5 | 5305 |
| ninaG | DRSC16102 | 1.50e5 | 6830 |
| CG13021 | DRSC17893 | 58981 | 3808 |
| CG34002 | DRSC09512 | 1.43e5 | 3620 |
| CG34002 | DRSC11953 | 97845 | 4315 |
| CG7484 | DRSC10853 | 1.49e5 | 8784 |
| dpr9 | DRSC14534 | 73844 | 3554 |
| dpr9 | DRSC14985 | 1.07e5 | 5849 |
| dpr9 | DRSC14986 | 1.37e5 | 6571 |
| CG8778 | DRSC07264 | 97463 | 3969 |
| CG42507 + Trl | DRSC09325 | 1.20e5 | 3956 |
| CG42507 + Trl | DRSC11308 | 52086 | 2874 |
| CG32107 | DRSC09221 | 1.30e5 | 3986 |
| CG3618 | DRSC11746 | 87894 | 3656 |
| Cyp12e1 | DRSC16622 | 1.42e5 | 6080 |
| yip2 | DRSC03640 | 1.49e5 | 5637 |
| 5-HT2A | DRSC11990 | 74824 | 3490 |
| CG14891 | DRSC15013 | 72077 | 3165 |
| CG5181 | DRSC02825 | 1.02e5 | 3869 |
| TotB | DRSC15842 | 1.44e5 | 7218 |
| Gs1 | DRSC00753 | 80111 | 3360 |
| CG9673 | DRSC20202 | 2.21e5 | 15081 |
| CG15601 | DRSC19670 | 1.52e5 | 6479 |
| CG31145 | DRSC13634 | 91437 | 2487 |
| CG31145 | DRSC14206 | 82970 | 5190 |
| CG31145 | DRSC14670 | 61329 | 5315 |
| CG31145 | DRSC14671 | 91011 | 6372 |
| SLC5A11 | DRSC03088 | 90843 | 3977 |
| sty | DRSC08737 | 1.14e5 | 4374 |
| mRpL42 | DRSC06235 | 1.37e5 | 4346 |
| CG30416 | DRSC04565 | 1.07e5 | 4267 |
| ND-B14.5B | DRSC00346 | 1.46e5 | 5122 |
| mesh | DRSC14472 | 48749 | 3997 |
| mesh | DRSC15098 | 1.14e5 | 6812 |
| mesh | DRSC15099 | 1.14e5 | 6955 |
| Gale | DRSC08234 | 76585 | 3371 |
| Cyp4g1 | DRSC18459 | 1690 | 936 |
| CCT3 | DRSC16602 | 66365 | 3289 |
| Polr1E | DRSC14506 | 1.26e5 | 7555 |
| Polr1E | DRSC15358 | 68197 | 3077 |
| CG16957 | DRSC02545 | 1.09e5 | 4603 |
| Or69a | DRSC11243 | 1.31e5 | 7374 |
| hbn | DRSC04082 | 94056 | 3759 |
| hbn | DRSC04238 | 1.12e5 | 4458 |
| hbn | DRSC04239 | 99374 | 3827 |
| PNKP | DRSC16512 | 1.46e5 | 6532 |
| Dek | DRSC07418 | 58993 | 3406 |
| CG11920 | DRSC14439 | 72120 | 3010 |
| Hip1 | DRSC09812 | 75955 | 3704 |
| RpS26 | DRSC03420 | 60293 | 115 |
| Sptr | DRSC18719 | 8126 | 848 |
| CG7148 | DRSC11802 | 86110 | 4090 |
| Spn75F | DRSC09589 | 64267 | 2371 |
| Oatp33Eb | DRSC02955 | 1.17e5 | 4506 |
